Measurements reported in article PMC7319964, “The MiDAC histone deacetylase complex is essential for embryonic development and has a unique multivalent structure” (Nature Communications, 2020).
Results are given in words; binding and its absence hold for the method and conditions named. For part of these data: Binding seen in cells or lysates may run through a third protein. Some results given as binding are weak or reduced against the parent protein; the word gives no strength. For part of these data: Where a sequence is shown, tags or fusion partners need not be part of it. One block for each molecule: values may come before it.

Protein sequences, listed by entry. Tags and fused reporters are not part of them.
UniProt Q13547: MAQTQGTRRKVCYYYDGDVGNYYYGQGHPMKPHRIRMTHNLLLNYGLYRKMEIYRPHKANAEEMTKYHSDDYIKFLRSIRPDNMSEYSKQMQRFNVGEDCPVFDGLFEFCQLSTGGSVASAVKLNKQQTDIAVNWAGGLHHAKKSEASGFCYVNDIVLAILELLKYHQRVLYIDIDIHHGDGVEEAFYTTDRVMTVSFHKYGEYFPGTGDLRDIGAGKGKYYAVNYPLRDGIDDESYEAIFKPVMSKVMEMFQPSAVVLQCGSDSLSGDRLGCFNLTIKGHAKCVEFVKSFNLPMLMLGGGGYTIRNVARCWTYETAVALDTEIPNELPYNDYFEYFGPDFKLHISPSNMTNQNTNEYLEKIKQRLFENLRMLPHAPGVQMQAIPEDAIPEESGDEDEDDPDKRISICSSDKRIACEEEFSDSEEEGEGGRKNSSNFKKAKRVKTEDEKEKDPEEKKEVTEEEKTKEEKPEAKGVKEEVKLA
UniProt Q92769: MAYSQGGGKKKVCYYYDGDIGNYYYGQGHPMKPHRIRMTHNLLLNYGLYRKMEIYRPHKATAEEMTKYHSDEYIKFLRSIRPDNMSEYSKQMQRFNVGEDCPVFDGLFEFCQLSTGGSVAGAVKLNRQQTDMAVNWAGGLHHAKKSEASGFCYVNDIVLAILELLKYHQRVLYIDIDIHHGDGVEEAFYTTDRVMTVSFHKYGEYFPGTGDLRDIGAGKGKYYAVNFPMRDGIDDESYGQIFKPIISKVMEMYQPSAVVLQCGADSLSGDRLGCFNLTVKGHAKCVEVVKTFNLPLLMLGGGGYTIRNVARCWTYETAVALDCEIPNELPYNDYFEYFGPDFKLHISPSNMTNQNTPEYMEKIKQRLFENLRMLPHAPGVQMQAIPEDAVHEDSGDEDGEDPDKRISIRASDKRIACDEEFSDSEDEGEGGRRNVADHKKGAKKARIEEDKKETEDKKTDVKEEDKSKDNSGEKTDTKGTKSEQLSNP

Key:
[1] = molecular target: T1, ELM2-SANT domain from MIDEAS (UniProt Q6PJG2); test: cryo-EM structure; complex with full-length DNTTIP1 including the DNA-binding domain; low-resolution maps (~23 Å without symmetry, 16 Å with mask and D2 symmetry); both purified
T1 sequence: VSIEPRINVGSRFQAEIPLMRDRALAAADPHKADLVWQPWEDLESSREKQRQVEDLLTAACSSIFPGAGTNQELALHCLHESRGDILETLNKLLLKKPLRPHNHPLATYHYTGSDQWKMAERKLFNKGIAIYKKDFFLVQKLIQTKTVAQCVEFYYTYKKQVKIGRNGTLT

[2] = molecular target: T1, ELM2-SANT domain from MIDEAS; test: cryo-EM structure; complex of HDAC1, MIDEAS ELM2-SANT and DNTTIP1 lacking the DNA-binding domain; 50 µM SAHA and 50 µM InsP6, glutaraldehyde cross-linked on ice; dimer map ~4 Å (C2) and tetramer map 4.5 Å (D2) from the same grids; both purified
[3] = molecular target: T2, MIDEAS (human (endogenous in U2OS)) (UniProt Q6PJG2); test: co-IP; U2OS lysates; rabbit anti-MIDEAS or rabbit anti-DNTTIP1 cross-linked to Dynabeads, 4 °C for 16 h; asynchronous cells and cells blocked 16 h in G1/S (aphidicolin 1.6 µg/ml) or M (nocodazole 3.3 µg/ml); mock IP with rabbit IgG; western blot
T2 sequence: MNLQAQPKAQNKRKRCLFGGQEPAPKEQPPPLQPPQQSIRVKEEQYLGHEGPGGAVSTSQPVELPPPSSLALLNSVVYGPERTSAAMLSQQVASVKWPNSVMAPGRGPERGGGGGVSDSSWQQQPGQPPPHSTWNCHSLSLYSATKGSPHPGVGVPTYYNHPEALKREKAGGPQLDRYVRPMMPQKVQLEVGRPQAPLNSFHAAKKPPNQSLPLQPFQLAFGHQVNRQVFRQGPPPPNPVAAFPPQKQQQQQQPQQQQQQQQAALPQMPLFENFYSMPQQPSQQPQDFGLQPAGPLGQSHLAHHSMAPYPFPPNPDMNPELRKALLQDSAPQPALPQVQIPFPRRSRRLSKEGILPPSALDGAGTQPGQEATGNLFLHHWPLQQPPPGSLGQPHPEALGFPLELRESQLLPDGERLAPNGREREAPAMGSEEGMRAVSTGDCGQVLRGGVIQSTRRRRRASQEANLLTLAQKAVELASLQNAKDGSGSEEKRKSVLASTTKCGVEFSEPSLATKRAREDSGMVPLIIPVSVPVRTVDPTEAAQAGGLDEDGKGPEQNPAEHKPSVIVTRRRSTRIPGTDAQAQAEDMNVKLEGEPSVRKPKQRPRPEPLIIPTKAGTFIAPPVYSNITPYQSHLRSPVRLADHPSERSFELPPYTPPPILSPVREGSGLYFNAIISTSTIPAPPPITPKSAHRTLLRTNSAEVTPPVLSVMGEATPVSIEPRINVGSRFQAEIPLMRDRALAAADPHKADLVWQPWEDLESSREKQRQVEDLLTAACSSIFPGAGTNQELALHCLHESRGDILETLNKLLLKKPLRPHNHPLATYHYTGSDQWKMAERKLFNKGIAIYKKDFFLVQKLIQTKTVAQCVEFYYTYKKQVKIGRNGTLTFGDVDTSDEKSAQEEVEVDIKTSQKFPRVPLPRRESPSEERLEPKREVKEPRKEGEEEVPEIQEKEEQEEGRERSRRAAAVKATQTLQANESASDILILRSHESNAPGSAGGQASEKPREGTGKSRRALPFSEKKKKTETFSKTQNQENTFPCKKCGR

[4] = molecular target: T3, DNTTIP1 (human (endogenous in U2OS)) (UniProt Q9H147); test: as above
T3 sequence: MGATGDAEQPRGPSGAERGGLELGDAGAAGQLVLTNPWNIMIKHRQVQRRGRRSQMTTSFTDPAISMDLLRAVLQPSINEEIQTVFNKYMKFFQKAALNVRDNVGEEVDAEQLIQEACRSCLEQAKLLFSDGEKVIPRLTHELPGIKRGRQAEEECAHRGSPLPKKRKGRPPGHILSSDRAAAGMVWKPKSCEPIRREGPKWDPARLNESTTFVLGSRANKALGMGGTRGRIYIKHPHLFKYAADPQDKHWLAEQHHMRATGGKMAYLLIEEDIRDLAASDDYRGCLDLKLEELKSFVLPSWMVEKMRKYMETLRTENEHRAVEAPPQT

[5] = molecular target: T4, MIDEAS-FLAG (mouse (endogenous in E14 ES cells)) (UniProt E9Q2I4); test: co-IP; anti-FLAG IP from MIDEAS-FLAG CRISPR mouse ES cells synchronised with 10 µM RO-3306 for 14 h, then nocodazole (30 ng/ml) for 2 h, harvested at time points after release; western blot
T4 sequence: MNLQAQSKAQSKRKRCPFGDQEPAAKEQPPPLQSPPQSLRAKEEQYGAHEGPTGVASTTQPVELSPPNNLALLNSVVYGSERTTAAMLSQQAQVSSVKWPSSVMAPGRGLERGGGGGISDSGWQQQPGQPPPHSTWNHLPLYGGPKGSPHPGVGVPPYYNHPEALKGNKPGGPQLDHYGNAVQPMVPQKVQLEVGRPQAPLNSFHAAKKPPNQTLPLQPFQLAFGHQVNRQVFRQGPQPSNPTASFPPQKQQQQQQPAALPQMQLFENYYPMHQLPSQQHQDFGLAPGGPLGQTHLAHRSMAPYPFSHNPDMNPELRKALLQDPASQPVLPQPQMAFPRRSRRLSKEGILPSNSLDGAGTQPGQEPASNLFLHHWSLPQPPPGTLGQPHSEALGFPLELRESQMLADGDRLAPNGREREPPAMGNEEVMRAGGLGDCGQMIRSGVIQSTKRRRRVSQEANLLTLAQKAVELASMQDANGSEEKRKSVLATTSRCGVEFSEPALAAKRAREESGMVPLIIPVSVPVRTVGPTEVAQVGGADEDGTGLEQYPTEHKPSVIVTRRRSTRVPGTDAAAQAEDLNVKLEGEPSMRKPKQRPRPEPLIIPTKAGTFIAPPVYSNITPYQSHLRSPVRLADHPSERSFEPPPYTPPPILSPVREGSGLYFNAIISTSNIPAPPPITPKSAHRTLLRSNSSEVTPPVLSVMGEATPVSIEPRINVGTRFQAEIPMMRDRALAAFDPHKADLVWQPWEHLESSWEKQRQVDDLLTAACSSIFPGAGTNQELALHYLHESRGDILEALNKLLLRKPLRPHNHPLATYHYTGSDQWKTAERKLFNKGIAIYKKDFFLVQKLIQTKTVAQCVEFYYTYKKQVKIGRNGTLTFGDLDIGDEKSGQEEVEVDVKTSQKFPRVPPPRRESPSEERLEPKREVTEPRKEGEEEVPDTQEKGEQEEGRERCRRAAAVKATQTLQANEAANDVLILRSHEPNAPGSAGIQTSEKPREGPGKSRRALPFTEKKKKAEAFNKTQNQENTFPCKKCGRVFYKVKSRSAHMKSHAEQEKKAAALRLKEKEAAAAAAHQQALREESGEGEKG

- binding [1]: binds
- binding [2]: binds
Molecule: full-length HDAC1 (from UniProt Q13547 1-482) (enzyme)

- binding [3]: binds
Molecule: HDAC1 (from UniProt Q13547 1-482) (enzyme)

- binding [4]: binds
- binding [3]: binds
Molecule: HDAC2 (from UniProt Q92769 1-488) (enzyme)

- binding [5]: binds
B1: DNTTIP1 (mouse) (protein, UniProt Q99LB0 1-328)
chain: MGATGDTEQPRGPGGAERGGLELGDAGAAGQPVLTNPWNIMIKHRQVQRRGRRSQMTTSFTDPAISMDLLRAVLQPSINEEIQGVFNKYMKFFQKAALNVRDNVGEEVDAEQLIQEACRSCLEQAKLLFSDGEKVIPRLAHELPGIKRGRQAEEESHRGSPIPKKRKGRPPGHVLSNDRAAAGMVWKQKSCEPIRREGPKWDPARLNESTTFVLGSRANKALGMGGTRGRIYIKHPHLFKYAADPQDKHWLAEQHHMRATGGKMAYLLIEEDIRDLAASDDYRGCLDLKLEELKSFVLPSWMVEKMRKYMETLRTENEHRAAEAPPQT
